No constants are given. Whether binding was seen depends on the method and setting. In cells and extracts the contact can be indirect. Some binding calls cover weakened binding; strength is not graded here. Sequences can lack the tags named with a protein.
T1: HycE, [NiFe]-hydrogenase catalytic subunit of formate hydrogenlyase, with internal His-tag (E. coli) (UniProt P16431)
T1 sequence: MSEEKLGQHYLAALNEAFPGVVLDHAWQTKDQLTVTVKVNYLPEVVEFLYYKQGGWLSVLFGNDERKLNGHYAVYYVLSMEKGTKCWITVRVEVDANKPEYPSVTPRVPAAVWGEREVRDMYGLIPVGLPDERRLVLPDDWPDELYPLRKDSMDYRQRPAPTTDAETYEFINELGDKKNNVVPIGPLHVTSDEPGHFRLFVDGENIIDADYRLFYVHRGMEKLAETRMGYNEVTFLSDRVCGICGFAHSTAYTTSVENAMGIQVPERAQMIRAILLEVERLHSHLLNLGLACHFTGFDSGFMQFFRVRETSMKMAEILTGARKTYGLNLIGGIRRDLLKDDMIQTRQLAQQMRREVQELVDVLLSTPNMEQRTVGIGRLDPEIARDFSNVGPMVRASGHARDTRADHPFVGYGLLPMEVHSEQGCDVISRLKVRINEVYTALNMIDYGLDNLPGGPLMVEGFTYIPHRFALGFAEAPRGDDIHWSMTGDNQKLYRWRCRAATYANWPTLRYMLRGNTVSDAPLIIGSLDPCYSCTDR

B1: HycB, [FeS]-cluster protein of formate hydrogenlyase (protein, UniProt P0AAK1 1-203)
chain: MNRFVIADSTLCIGCHTCEAACSETHRQHGLQSMPRLRVMLNEKESAPQLCHHCEDAPCAVVCPVNAITRVDGAVQLNESLCVSCKLCGIACPFGAIEFSGSRPLDIPANANTPKAPPAPPAPARVSTLLDWVPGIRAIAVKCDLCSFDEQGPACVRMCPTKALHLVDNTDIARVSKRKRELTFNTDFGDLTLFQQAQSGEAK
B2: HycD, integral membrane subunit of formate hydrogenlyase (protein, UniProt P16430 1-307)
chain: MSVLYPLIQALVLFAVAPLLSGITRVARARLHNRRGPGVLQEYRDIIKLLGRQSVGPDASGWVFRLTPYVMVGVMLTIATALPVVTVGSPLPQLGDLITLLYLFAIARFFFAISGLDTGSPFTAIGASREAMLGVLVEPMLLLGLWVAAQVAGSTNISNITDTVYHWPLSQSIPLVLALCACAFATFIEMGKLPFDLAEAEQELQEGPLSEYSGSGFGVMKWGISLKQLVVLQMFVGVFIPWGQMETFTAGGLLLALVIAIVKLVVGVLVIALFENSMARLRLDITPRITWAGFGFAFLAFVSLLAA
B3: HycG, Hyd-3 small subunit of formate hydrogenlyase (protein, UniProt P16433 1-255)
chain: MSNLLGPRDANGIPVPMTVDESIASMKASLLKKIKRSAYVYRVDCGGCNGCEIEIFATLSPLFDAERFGIKVVPSPRHADILLFTGAVTRAMRSPALRAWQSAPDPKICISYGACGNSGGIFHDLYCVWGGTDKIVPVDVYIPGCPPTPAATLYGFAMALGLLEQKIHARGPGELDEQPAEILHGDMVQPLRVKVDREARRLAGYRYGRQIADDYLTQLGQGEEQVARWLEAENDPRLNEIVSHLNHVVEEARIR
B4: HycC, integral membrane subunit of formate hydrogenlyase (protein, UniProt P16429 1-608)
chain: MSAISLINSGVAWFVAAAVLAFLFSFQKALSGWIAGIGGAVGSLYTAAAGFTVLTGAVGVSGALSLVSYDVQISPLNAIWLITLGLCGLFVSLYNIDWHRHAQVKCNGLQINMLMAAAVCAVIASNLGMFVVMAEIMALCAVFLTSNSKEGKLWFALGRLGTLLLAIACWLLWQRYGTLDLRLLDMRMQQLPLGSDIWLLGVIGFGLLAGIIPLHGWVPQAHANASAPAAALFSTVVMKIGLLGILTLSLLGGNAPLWWGIALLVLGMITAFVGGLYALVEHNIQRLLAYHTLENIGIILLGLGAGVTGIALEQPALIALGLVGGLYHLLNHSLFKSVLFLGAGSVWFRTGHRDIEKLGGIGKKMPVISIAMLVGLMAMAALPPLNGFAGEWVIYQSFFKLSNSGAFVARLLGPLLAVGLAITGALAVMCMAKVYGVTFLGAPRTKEAENATCAPLLMSVSVVALAICCVIGGVAAPWLLPMLSAAVPLPLEPANTTVSQPMITLLLIACPLLPFIIMAICKGDRLPSRSRGAAWVCGYDHEKSMVITAHGFAMPVKQAFAPVLKLRKWLNPVSLVPGWQCEGSALLFRRMALVELAVLVVIIVSRGA
B5: HycF, [FeS]-cluster protein of formate hydrogenlyase (protein, UniProt P16432 1-180)
chain: MFTFIKKVIKTGTATSSYPLEPIAVDKNFRGKPEQNPQQCIGCAACVNACPSNALTVETDLATGELAWEFNLGHCIFCGRCEEVCPTAAIKLSQEYELAVWKKEDFLQQSRFALCNCRVCNRPFAVQKEIDYAIALLKHNGDSRAENHRESFETCPECKRQKCLVPSDRIELTRHMKEAI
B6: FDH-H, formate dehydrogenase subunit of formate hydrogenlyase (FdhF) (protein, UniProt P07658 1-715)
chain: MKKVVTVCPYCASGCKINLVVDNGKIVRAEAAQGKTNQGTLCLKGYYGWDFINDTQILTPRLKTPMIRRQRGGKLEPVSWDEALNYVAERLSAIKEKYGPDAIQTTGSSRGTGNETNYVMQKFARAVIGTNNVDCCARVUHGPSVAGLHQSVGNGAMSNAINEIDNTDLVFVFGYNPADSHPIVANHVINAKRNGAKIIVCDPRKIETARIADMHIALKNGSNIALLNAMGHVIIEENLYDKAFVASRTEGFEEYRKIVEGYTPESVEDITGVSASEIRQAARMYAQAKSAAILWGMGVTQFYQGVETVRSLTSLAMLTGNLGKPHAGVNPVRGQNNVQGACDMGALPDTYPGYQYVKDPANREKFAKAWGVESLPAHTGYRISELPHRAAHGEVRAAYIMGEDPLQTDAELSAVRKAFEDLELVIVQDIFMTKTASAADVILPSTSWGEHEGVFTAADRGFQRFFKAVEPKWDLKTDWQIISEIATRMGYPMHYNNTQEIWDELRHLCPDFYGATYEKMGELGFIQWPCRDTSDADQGTSYLFKEKFDTPNGLAQFFTCDWVAPIDKLTDEYPMVLSTVREVGHYSCRSMTGNCAALAALADEPGYAQINTEDAKRLGIEDEALVWVHSRKGKIITRAQVSDRPNKGAIYMTYQWWIGACNELVTENLSPITKTPEYKYCAVRVEPIADQRAAEQYVIDEYNKLKTRLREAALA
modifications: selenocysteine at the active site (position not given)

target: T1, HycE, [NiFe]-hydrogenase catalytic subunit of formate hydrogenlyase, with internal His-tag (E. coli); assay: pull-down; IMAC purification of the FHL complex by the internal His-tag on HycE from E. coli MG059e1; membranes dispersed in a detergent cocktail, purified in dodecyl maltoside buffer; subunits seen by SDS-PAGE

binding, binds:
B1, B2, B3, B4, B5, B6

target: T1, HycE, [NiFe]-hydrogenase catalytic subunit of formate hydrogenlyase, with internal His-tag (E. coli); assay: pull-down; purification of HycE^His from the MG059e1 derivative carrying the HycD E199/201/203A allele on the chromosome; data not shown

binding, binds:
B1, B3, B5, B6

target: T1, HycE, [NiFe]-hydrogenase catalytic subunit of formate hydrogenlyase, with internal His-tag (E. coli); assay: pull-down; IMAC purification by the internal His-tag on HycE from E. coli EHisdCD (deletion of hycC and hycD), grown fermentatively; subunits seen by SDS-PAGE

binding, binds:
B1, B3, B5, B6
